One compound from patent US20030108484A1, “Individualization of therapy with antineoplastic agents” (McGill University, priority 2001, published 2003) can be followed below.

The test system of the series is 1X-Ab. As to the kind of experiment: Effect of the ratio 1U:1X on the determination of 1X concentration by ELISA. Format: binding, rabbit. The note with it: fixed 1X 3 × 10^−6 M.

In the case of `Cn1c(=O)[nH]c2nc[nH]c2c1=O` [1-Methyl Xanthine (1X), 1-Methyl Xanthine], the “[1X] × 10^6 (M)” value is given as 3.00 × 10^6 (M) (1U:1X ratio 0.0); 2.75 × 10^6 (M) (1U:1X ratio 0.50); 3.25 × 10^6 (M) (1U:1X ratio 1.00); 3.25 × 10^6 (M) (1U:1X ratio 1.50); 3.60 × 10^6 (M) (1U:1X ratio 2.00); 3.65 × 10^6 (M) (1U:1X ratio 2.50). For the same compound, the “[1X] × 10^6 (M)” value is 3.95 × 10^6 (M) (1U:1X ratio 3.00); 4.20 × 10^6 (M) (1U:1X ratio 4.00); 4.30 × 10^6 (M) (1U:1X ratio 5.00); 4.50 × 10^6 (M) (1U:1X ratio 6.00); 4.30 × 10^6 (M) (1U:1X ratio 8.00).
